At least one structure is not confirmed: it was looked up by name or label, or the drawing left a doubt.
Tested on: P19 cells
Assay: Retinoic acid-induced neural differentiation of P19 cells at the neurosphere stage (Western blot)
Assay type: cell-based

For `CC1=C(/C=C/C(C)=C/C=C/C(C)=C/C(=O)O)C(C)(C)CCC1` [retinoic acid], the LIN28 levels (RA applied at the neurosphere stage) was “reduction in LIN28” and the “RBM3 expression and phosphorylation state” value (neurosphere stage, data not shown) was “upregulation and, importantly, dephosphorylation of RBM3”.

Source: patent US20170095524A1, “METHODS FOR MODULATING CANCER CELLS AND STEM CELLS” (The Scripps Research Institute, priority 2014, published 2017)
